Assay results taken from patent publication US10064928B2, “Peptides and combination of peptides for use in immunotherapy against CLL and other cancers” (IMMATICS BIOTECHNOLOGIES GMBH, priority 2015, dated 2018).

How the values were obtained:
[1] = tested on: CLL samples compared to a panel of normal tissues; experiment: Identification and label-free relative LC-MS quantitation of HLA-presented peptides (presentation profiles and scores); parameters: species or system human; key: very highly over-presented on tumors compared to a panel of normal tissues (+++); highly over-presented on tumors compared to a panel of normal tissues (++); over-presented on tumors compared to a panel of normal tissues (+); details: presentation score; over-presentation on tumors (CLL samples) compared to a panel of normal tissues
[2] = tested on: other tumor types (e.g. non-Hodgkin lymphoma, lung cancer); experiment: Presentation of the peptides on additional tumor types (LC-MS, Tables 4A/4B, FIG. 1); parameters: species or system human; details: for Other relevant organs/diseases: Table 4A: additional tumor types where the peptide was over-presented on more than 5% of the measured tumor samples, or presented on more than 5% with ratio of geometric means tumor vs normal tissues larger than 3; for Additional Entities: Table 4B: additional tumour types with over-presentation (including specific presentation) on more than 5% of the measured tumour samples, or presentation on more than 5% with ratio of geometric means tumour vs normal tissues larger than 3, extended normal tissue panel

Substance: 126 (LLPEGGITAI; listed as Homo sapiens) [compound 126]
- Peptide Presentation [1]: +++
- Other relevant organs/diseases [2]: NHL
- Additional Entities [2]: SCLC, HCC, Melanoma, Uterine Cancer, HNSCC

Substance: 187 (VMDTHLVNI; listed as Homo sapiens) [compound 187]
- Peptide Presentation [1]: +++
- Other relevant organs/diseases [2]: NHL, Urinary bladder cancer
- Additional Entities [2]: CRC, Melanoma, Uterine Cancer

Substance: 260 (SLDDVEGMSV; listed as Homo sapiens) [compound 260]
- Peptide Presentation [1]: ++
- Other relevant organs/diseases [2]: NHL, Gallbladder Cancer, Bile Duct Cancer
- Additional Entities [2]: SCLC, HNSCC

Substance: 30 (ELLEGSEIYL; listed as Homo sapiens) [compound 30]
- Peptide Presentation [1]: +
- Other relevant organs/diseases [2]: NHL
- Additional Entities [2]: CRC, BRCA, Melanoma, Uterine Cancer

Substance: 317 (NLLAHIWAL; listed as Homo sapiens) [compound 317]
- Peptide Presentation [1]: +
- Other relevant organs/diseases [2]: AML
- Additional Entities [2]: NHL

Substance: 320 (TIAPVTVAV; listed as Homo sapiens) [compound 320]
- Peptide Presentation [1]: +
- Other relevant organs/diseases [2]: NHL

Substance: 197 (YLQEVPILTL; listed as Homo sapiens) [compound 197]
- Peptide Presentation [1]: +++
- Other relevant organs/diseases [2]: NHL, Melanoma
- Additional Entities [2]: Uterine Cancer

Substance: 377 (VVDGTCVAV; listed as Homo sapiens) [compound 377]
- Peptide Presentation [1]: +
- Other relevant organs/diseases [2]: NHL, Melanoma
- Additional Entities [2]: BRCA, Uterine Cancer, HNSCC

Substance: 127 (LLPTAPTTV; listed as Homo sapiens) [compound 127]
- Peptide Presentation [1]: +++
- Other relevant organs/diseases [2]: NHL
- Additional Entities [2]: SCLC

Substance: 378 (YILGKFFAL; listed as Homo sapiens) [compound 378]
- Peptide Presentation [1]: +
- Other relevant organs/diseases [2]: NHL, AML
- Additional Entities [2]: Melanoma, Esophageal Cancer

Substance: 137 (NLIKTVIKL; listed as Homo sapiens) [compound 137]
- Peptide Presentation [1]: +
- Other relevant organs/diseases [2]: NHL

Substance: 71 (GLKHDIARV; listed as Homo sapiens) [compound 71]
- Peptide Presentation [1]: +++
- Other relevant organs/diseases [2]: NHL

Substance: 264 (TILDYINVV; listed as Homo sapiens) [compound 264]
- Peptide Presentation [1]: +++
- Other relevant organs/diseases [2]: Brain Cancer, NHL, AML, BRCA, OC, Uterine Cancer
- Additional Entities [2]: HNSCC

Substance: 291 (ILLNEDDLVTI; listed as Homo sapiens) [compound 291]
- Peptide Presentation [1]: +++
- Other relevant organs/diseases [2]: SCLC, NHL, Melanoma

Substance: 282 (LLRDGIELV; listed as Homo sapiens) [compound 282]
- Peptide Presentation [1]: +++
- Other relevant organs/diseases [2]: NHL, Melanoma, OC

Substance: 93 (ILFNTQINI; listed as Homo sapiens) [compound 93]
- Peptide Presentation [1]: +++
- Other relevant organs/diseases [2]: SCLC, NHL, AML, Melanoma, OC
- Additional Entities [2]: Uterine Cancer, HNSCC

Substance: 20 (ALVDPGPDFVV; listed as Homo sapiens) [compound 20]
- Peptide Presentation [1]: +
- Other relevant organs/diseases [2]: NHL

Substance: 89 (ILDFGTFQL; listed as Homo sapiens) [compound 89]
- Peptide Presentation [1]: +++
- Other relevant organs/diseases [2]: NHL
- Additional Entities [2]: BRCA

Substance: 178 (VLFFNVQEV; listed as Homo sapiens) [compound 178]
- Peptide Presentation [1]: +++
- Other relevant organs/diseases [2]: SCLC, NHL

Substance: 355 (FIWPMLIHI; listed as Homo sapiens) [compound 355]
- Peptide Presentation [1]: +++
- Additional Entities [2]: Melanoma, Uterine Cancer

Substance: 375 (VLWFKPVEL; listed as Homo sapiens) [compound 375]
- Peptide Presentation [1]: ++
- Other relevant organs/diseases [2]: NSCLC, HCC, NHL, Melanoma, Esophageal Cancer
- Additional Entities [2]: BRCA, OC, Uterine Cancer, Gallbladder Cancer, Bile Duct Cancer, HNSCC

Substance: 342 (SLITPLQAV; listed as Homo sapiens) [compound 342]
- Peptide Presentation [1]: +++
- Other relevant organs/diseases [2]: NHL, AML, Urinary bladder cancer, Gallbladder Cancer, Bile Duct Cancer
- Additional Entities [2]: HNSCC

Substance: 114 (LIPEGPPQV; listed as Homo sapiens) [compound 114]
- Peptide Presentation [1]: +++
- Additional Entities [2]: AML, HNSCC

Substance: 367 (NLWSLVAKV; listed as Homo sapiens) [compound 367]
- Peptide Presentation [1]: ++
- Other relevant organs/diseases [2]: NSCLC, NHL, AML, Melanoma, OC
- Additional Entities [2]: Uterine Cancer

Substance: 19 (QVMEKLAAV; listed as Homo sapiens) [compound 19]
- Peptide Presentation [1]: +
- Other relevant organs/diseases [2]: NHL

Substance: 163 (SQLDISEPYKV; listed as Homo sapiens) [compound 163]
- Peptide Presentation [1]: +
- Other relevant organs/diseases [2]: NHL

Substance: 14 (ALLRLLPGL; listed as Homo sapiens) [compound 14]
- Peptide Presentation [1]: +
- Other relevant organs/diseases [2]: NHL, AML
- Additional Entities [2]: BRCA, Melanoma, HNSCC

Substance: 214 (RLQELTEKL; listed as Homo sapiens) [compound 214]
- Peptide Presentation [1]: +
- Other relevant organs/diseases [2]: NHL, AML

Substance: 267 (TLLDWQDSL; listed as Homo sapiens) [compound 267]
- Peptide Presentation [1]: +
- Other relevant organs/diseases [2]: NHL, AML, Melanoma

Substance: 343 (TLLEALDCI; listed as Homo sapiens) [compound 343]
- Peptide Presentation [1]: ++
- Other relevant organs/diseases [2]: NHL, AML, Melanoma, Esophageal Cancer
- Additional Entities [2]: GC, Uterine Cancer, HNSCC

Substance: 109 (KLWEGLTELV; listed as Homo sapiens) [compound 109]
- Peptide Presentation [1]: ++
- Other relevant organs/diseases [2]: AML

Substance: 33 (FIINSSNIFL; listed as Homo sapiens) [compound 33]
- Peptide Presentation [1]: +++
- Other relevant organs/diseases [2]: NHL

Substance: 204 (GLLQINDKIAL; listed as Homo sapiens) [compound 204]
- Peptide Presentation [1]: ++
- Other relevant organs/diseases [2]: SCLC, RCC, HCC, Melanoma, OC, Urinary bladder cancer
- Additional Entities [2]: BRCA, Uterine Cancer, AML

Substance: 48 (FLSPQQPPLL; listed as Homo sapiens) [compound 48]
- Peptide Presentation [1]: +++
- Other relevant organs/diseases [2]: NHL
- Additional Entities [2]: HNSCC

Substance: 232 (FMHQIIDQV; listed as Homo sapiens) [compound 232]
- Peptide Presentation [1]: +
- Other relevant organs/diseases [2]: RCC, CRC, Melanoma
- Additional Entities [2]: Uterine Cancer

Substance: 199 (YLVELSSLL; listed as Homo sapiens) [compound 199]
- Peptide Presentation [1]: +++
- Other relevant organs/diseases [2]: HCC, NHL, AML
- Additional Entities [2]: Melanoma

Substance: 236 (GLLESGRHYL; listed as Homo sapiens) [compound 236]
- Peptide Presentation [1]: +++
- Other relevant organs/diseases [2]: NHL, AML

Substance: 238 (GLVETELQL; listed as Homo sapiens) [compound 238]
- Peptide Presentation [1]: +
- Other relevant organs/diseases [2]: NHL, AML

Substance: 113 (KVPAEEVLVAV; listed as Homo sapiens) [compound 113]
- Peptide Presentation [1]: +
- Additional Entities [2]: NHL, NSCLC

Substance: 76 (GLLRIIPYL; listed as Homo sapiens) [compound 76]
- Peptide Presentation [1]: ++
- Other relevant organs/diseases [2]: NHL
- Additional Entities [2]: RCC

Substance: 341 (LLAELPASVHA; listed as Homo sapiens) [compound 341]
- Peptide Presentation [1]: ++
- Other relevant organs/diseases [2]: HCC, NHL, Urinary bladder cancer

Substance: 344 (VLAFENPQV; listed as Homo sapiens) [compound 344]
- Peptide Presentation [1]: ++
- Other relevant organs/diseases [2]: Esophageal Cancer
- Additional Entities [2]: HNSCC

Substance: 338 (FLDMTNWNL; listed as Homo sapiens) [compound 338]
- Peptide Presentation [1]: +
- Other relevant organs/diseases [2]: HCC, NHL, Melanoma, OC, Urinary bladder cancer

Substance: 63 (SLAHVAGCEL; listed as Homo sapiens) [compound 63]
- Peptide Presentation [1]: +++
- Other relevant organs/diseases [2]: NHL

Substance: 157 (SLNIRDFTM; listed as Homo sapiens) [compound 157]
- Peptide Presentation [1]: +++
- Other relevant organs/diseases [2]: AML

Substance: 354 (FIMDDPAGNSYL; listed as Homo sapiens) [compound 354]
- Peptide Presentation [1]: +
- Other relevant organs/diseases [2]: CRC, NHL, AML, Melanoma, Esophageal Cancer, Urinary bladder cancer, Gallbladder Cancer, Bile Duct Cancer
- Additional Entities [2]: Brain Cancer, HNSCC

Substance: 64 (KLLESVASA; listed as Homo sapiens) [compound 64]
- Peptide Presentation [1]: ++
- Other relevant organs/diseases [2]: NHL

Substance: 175 (FTVPRVVAV; listed as Homo sapiens) [compound 175]
- Peptide Presentation [1]: ++
- Other relevant organs/diseases [2]: NHL

Substance: 280 (YTLDSLYWSV; listed as Homo sapiens) [compound 280]
- Peptide Presentation [1]: +
- Other relevant organs/diseases [2]: NHL
- Additional Entities [2]: SCLC, BRCA, Melanoma, HNSCC

Substance: 248 (KTVEPPISQV; listed as Homo sapiens) [compound 248]
- Peptide Presentation [1]: +
- Other relevant organs/diseases [2]: NHL

Substance: 81 (WLVGQEFEL; listed as Homo sapiens) [compound 81]
- Peptide Presentation [1]: +++
- Other relevant organs/diseases [2]: NHL

Substance: 28 (AVLHLLLSV; listed as Homo sapiens) [compound 28]
- Peptide Presentation [1]: +++
- Other relevant organs/diseases [2]: NHL, BRCA
